This is one part of the list.
Legend:
Experiment in all cases: log2 fold change, soluble protein after heating vs DMSO (PISA); higher = thermal stabilisation; K562 cells, 10 uM, 30 min; active = over 0.2 and 3.5 SD of the protein, either way, in both replicates (recomputed)
[1] = compound: CC[C@@H]1C(=O)N(C)c2cnc(Nc3ccc(C(=O)NC4CCN(C)CC4)cc3OC)nc2N1C1CCCC1
How it was run: (§1)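 Thermal stability values are relative to control samples and come from duplicates. They are expressed as log2 fold changes. For measurement, K562 cells (2×10^6 cells/mL) received 10 μM compound for 30 min, and aliquots were heated for 3 min over 48°C-58°C, pooled, and extracted at 4°C in PBS with 0.5% NP-40. Soluble protein, the supernatant after 21,000xg for 90 min, was quantified by TMTpro 16plex LC-MS/MS with equalised channel sums.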

Chains of the proteins cited; added tags and fusions are not shown. Lines headed by an entry give the natural chain unless they say otherwise; changes in a name come on top.
UniProt P35790, whole entry, looked up: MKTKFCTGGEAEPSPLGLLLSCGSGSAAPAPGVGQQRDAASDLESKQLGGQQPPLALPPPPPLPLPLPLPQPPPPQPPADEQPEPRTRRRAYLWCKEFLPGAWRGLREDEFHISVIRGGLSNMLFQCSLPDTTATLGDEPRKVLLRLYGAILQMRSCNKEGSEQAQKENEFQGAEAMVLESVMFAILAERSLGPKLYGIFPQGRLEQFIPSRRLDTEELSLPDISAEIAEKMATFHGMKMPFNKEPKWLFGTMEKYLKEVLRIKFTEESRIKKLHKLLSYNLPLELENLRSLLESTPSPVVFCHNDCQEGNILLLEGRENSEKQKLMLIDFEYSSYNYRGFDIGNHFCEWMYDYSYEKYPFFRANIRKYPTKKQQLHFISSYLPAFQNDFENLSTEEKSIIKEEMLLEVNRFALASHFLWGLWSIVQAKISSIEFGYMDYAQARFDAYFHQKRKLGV
UniProt O00748: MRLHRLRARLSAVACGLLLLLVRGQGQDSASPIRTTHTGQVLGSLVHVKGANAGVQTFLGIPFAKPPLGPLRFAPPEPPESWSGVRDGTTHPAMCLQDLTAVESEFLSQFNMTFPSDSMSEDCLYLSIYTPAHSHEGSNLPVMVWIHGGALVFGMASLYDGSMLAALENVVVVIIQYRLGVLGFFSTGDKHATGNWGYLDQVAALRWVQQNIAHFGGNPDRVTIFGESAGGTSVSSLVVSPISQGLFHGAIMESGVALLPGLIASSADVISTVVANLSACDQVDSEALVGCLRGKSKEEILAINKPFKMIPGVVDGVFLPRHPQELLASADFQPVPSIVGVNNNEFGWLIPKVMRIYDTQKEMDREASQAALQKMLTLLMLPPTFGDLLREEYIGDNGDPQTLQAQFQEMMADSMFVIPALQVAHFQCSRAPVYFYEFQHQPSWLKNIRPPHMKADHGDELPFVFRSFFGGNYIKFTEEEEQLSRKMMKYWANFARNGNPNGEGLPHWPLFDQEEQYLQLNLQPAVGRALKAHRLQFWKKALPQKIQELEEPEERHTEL
UniProt Q9Y6K0: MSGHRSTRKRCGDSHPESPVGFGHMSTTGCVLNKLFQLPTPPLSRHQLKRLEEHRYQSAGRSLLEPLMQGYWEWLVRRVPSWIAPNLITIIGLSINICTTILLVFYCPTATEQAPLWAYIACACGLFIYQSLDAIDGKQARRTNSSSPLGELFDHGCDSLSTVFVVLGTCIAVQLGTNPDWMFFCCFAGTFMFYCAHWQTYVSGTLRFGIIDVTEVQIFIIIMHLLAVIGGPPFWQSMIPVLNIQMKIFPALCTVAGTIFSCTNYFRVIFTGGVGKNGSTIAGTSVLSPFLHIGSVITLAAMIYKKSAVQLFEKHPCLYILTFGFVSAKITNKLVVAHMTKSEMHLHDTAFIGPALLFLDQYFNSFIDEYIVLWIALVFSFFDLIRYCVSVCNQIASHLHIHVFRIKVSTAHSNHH
UniProt O14757: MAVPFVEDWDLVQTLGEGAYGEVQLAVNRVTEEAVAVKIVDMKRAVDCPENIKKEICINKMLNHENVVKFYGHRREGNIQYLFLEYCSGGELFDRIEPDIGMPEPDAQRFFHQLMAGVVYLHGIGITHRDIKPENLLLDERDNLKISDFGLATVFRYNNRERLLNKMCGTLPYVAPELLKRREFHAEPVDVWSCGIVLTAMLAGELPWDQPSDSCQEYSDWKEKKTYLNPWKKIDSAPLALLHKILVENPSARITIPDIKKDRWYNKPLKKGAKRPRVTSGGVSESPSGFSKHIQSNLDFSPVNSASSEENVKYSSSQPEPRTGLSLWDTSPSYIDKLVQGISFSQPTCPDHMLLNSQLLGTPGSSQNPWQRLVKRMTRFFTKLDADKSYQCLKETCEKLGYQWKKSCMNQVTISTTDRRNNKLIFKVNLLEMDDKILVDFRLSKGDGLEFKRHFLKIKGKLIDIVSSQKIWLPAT

volasertib = compound: CC[C@@H]1C(=O)N(C)c2cnc(Nc3ccc(C(=O)N[C@H]4CC[C@H](N5CCN(CC6CC6)CC5)CC4)cc3OC)nc2N1C(C)C [volasertib]
How it was run: as §1

[2] = compound: CC[C@H](C)N1C=C(C2=C(C=C(C=C21)C3=CN=C(C=C3)N4CCNCC4)C(=O)NCC5=C(C=C(NC5=O)C)C)C
How it was run: as §1

epoxomicin = compound: CC[C@H](C)[C@@H](C(=O)N[C@@H]([C@@H](C)O)C(=O)N[C@@H](CC(C)C)C(=O)[C@]1(CO1)C)NC(=O)[C@H]([C@@H](C)CC)N(C)C(=O)C [epoxomicin]
How it was run: as §1

[3] = compound: CCn1cc(-c2ccnc3[nH]c(-c4cccc(CN(C)C)c4)cc23)c(-c2ccc(NC(=O)N(C)C)cc2)n1
How it was run: as §1

[4] = compound: CN(C)CC(=O)Nc1ccc2[nH]c(=O)c3ccccc3c2c1
How it was run: as §1

[5] = compound: CN1C2=C(C3=C1C(=O)N(N=C3)CC4=CC(=CC=C4)N)SC(=C2)S(=O)C
How it was run: as §1

[6] = compound: CN1CCC(CNc2ccc3ncc(-c4cccc(OC(F)(F)F)c4)n3n2)CC1
How it was run: as §1

saracatinib = compound: CN1CCN(CCOc2cc(OC3CCOCC3)c3c(Nc4c(Cl)ccc5c4OCO5)ncnc3c2)CC1 [saracatinib]
How it was run: as §1

sotrastaurin = compound: CN1CCN(c2nc(C3=C(c4c[nH]c5ccccc45)C(=O)NC3=O)c3ccccc3n2)CC1 [sotrastaurin]
How it was run: as §1

Tubastatin A = compound: CN1CCc2c(c3ccccc3n2Cc2ccc(C(=O)NO)cc2)C1 [Tubastatin A]
How it was run: as §1

[7] = compound: CNC(=O)C1=CC=CC=C1NC2=NC(=NC=C2Cl)NC3=C(C=C(C=C3)N4CCOCC4)OC
How it was run: as §1

defactinib = compound: CNC(=O)c1ccc(Nc2ncc(C(F)(F)F)c(NCc3nccnc3N(C)S(C)(=O)=O)n2)cc1 [defactinib]
How it was run: as §1

rucaparib = compound: CNCc1ccc(-c2[nH]c3cc(F)cc4c3c2CCNC4=O)cc1 [rucaparib]
How it was run: as §1

[8] = compound: CNc1nc(-c2ccc3c(N)n[nH]c3c2)cc(N2C[C@@H](C(=O)NC3CCCCC3)CC[C@H]2C)n1
How it was run: as §1

encorafenib = compound: COC(=O)N[C@@H](C)CNc1nccc(-c2cn(C(C)C)nc2-c2cc(Cl)cc(NS(C)(=O)=O)c2F)n1 [encorafenib]
How it was run: as §1

[9] = compound: COC(=O)[C@H](CCSC)NC(=O)C1=C(C=C(C=C1)NC[C@H](CS)N)C2=CC=CC=C2
How it was run: as §1

[10] = compound: CCn1c(C(=O)N(C2CC2)C2CC2)cc2c3c(ncn3C)c(Nc3cc(C)n(C)n3)nc21
How it was run: as §1

alvocidib = compound: CN1CC[C@H](c2c(O)cc(O)c3c(=O)cc(-c4ccccc4Cl)oc23)[C@H](O)C1 [alvocidib]
How it was run: as §1

| Target | log2 fold change [1] | log2 fold change (volasertib) | log2 fold change [2] | log2 fold change (epoxomicin) | log2 fold change [3] | log2 fold change [4] | log2 fold change [5] | log2 fold change [6] | log2 fold change (saracatinib) | log2 fold change (sotrastaurin) | log2 fold change (Tubastatin A) | log2 fold change [7] | log2 fold change (defactinib) | log2 fold change (rucaparib) | log2 fold change [8] | log2 fold change (encorafenib) | log2 fold change [9] | log2 fold change [10] | log2 fold change (alvocidib) |
| --- | --- | --- | --- | --- | --- | --- | --- | --- | --- | --- | --- | --- | --- | --- | --- | --- | --- | --- | --- |
| CHKA (UniProt P35790) | inactive: 0.22 | inactive: 0.161 | inactive: -0.077 | inactive: 0.127 | inactive: 0.203 | inactive: 0.043 | inactive: -0.082 | inactive: 0.187 | inactive: 0.028 | inactive: 0.107 | inactive: 0.148 | inactive: -0.033 | inactive: 0.006 | inactive: 0.046 | inactive: -0.027 | inactive: -0.107 | inactive: 0.056 |  |  |
| CES2 isoform 4 (UniProt O00748) | inactive: 0.033 | inactive: 0.108 | inactive: 0.1 | inactive: -0.168 | inactive: -0.012 | inactive: -0.02 | inactive: 0.034 | inactive: 0.054 | inactive: 0.04 | inactive: 0.196 | inactive: 0.115 | inactive: 0.247 | inactive: -0.164 | inactive: 0.3 | inactive: 0.218 | inactive: -0.145 | inactive: 0.044 |  |  |
| CEPT1 (UniProt Q9Y6K0) | inactive: -0.186 | inactive: -0.231 | inactive: -0.066 | inactive: -0.043 | inactive: -0.025 | inactive: 0.059 | inactive: -0.072 | inactive: 0.03 | inactive: 0.015 | inactive: 0.033 | inactive: 0.042 | inactive: 0.001 | inactive: -0.005 | inactive: -0.126 | inactive: -0.056 | inactive: 0.052 | inactive: -0.056 |  |  |
| CENPC (UniProt Q03188) | inactive: 0 | inactive: -0.095 | inactive: -0.095 | inactive: -0.061 |  | inactive: -0.127 | inactive: 0.111 |  | inactive: 0.142 |  |  | inactive: 0.118 | inactive: 0.048 | inactive: 0.24 | inactive: -0.006 | inactive: 0.076 | inactive: 0.052 | inactive: 0.091 | inactive: 0.033 |
| CHEK1 (UniProt O14757) | inactive: -0.137 | active: -0.274 | inactive: 0.005 | inactive: 0.055 | inactive: -0.101 | inactive: 0.003 | inactive: -0.029 | inactive: -0.159 | inactive: 0 | active: -0.271 | inactive: 0.09 | active: -0.32 | inactive: -0.031 | inactive: -0.071 | inactive: 0.003 | inactive: 0.043 | inactive: 0 |  |  |

Reference: the supplement of paper PMC10849652
